# System: SD rats with a high cholesterol diet (hyperlipidemia model)
# Experiment: Measurement of blood lipid in high cholesterol diet SD rats
# Assay type: in vivo, SD rats (Sprague-Dawley rats)
# [1] = plasma, oral, Ex. compositions 1,000 mg/kg, atorvastatin 5 mg/kg
smiles,measurement,setting,value
CC(C)c1c(C(=O)Nc2ccccc2)c(-c2ccccc2)c(-c2ccc(F)cc2)n1CC[C@@H](O)C[C@@H](O)CC(=O)O [Atorvastatin],Atherogenic Index (AI),"[(TC)-(HDL-c)]/(HDL-c), Ex. compositions 1000 mg/kg/day, atorvastatin 5 mg/kg/day",1.6
same,HDL-cholesterol concentration in blood,[1],53 mg/dL
same,LDL-cholesterol concentration in blood,[1],48 mg/dL
same,Total cholesterol concentration in blood,[1],147 mg/dL
same,Triglyceride concentration in blood,[1],219 mg/dL

# Reference: patent US10543246B2, “Composition for preventing or treating hyperlipidemia” (HAWON PHARM. CORPORATION, priority 2014, dated 2020)
